Results from patent EP0866075B1, “Method to treat microbial infections by uncoupling of phosphotransferase system and appropriate agents therefor” (priority 1997, dated 1998).
No constants are given. Whether binding was seen depends on the method and setting. Some binding calls cover weakened binding; strength is not graded here.

Biological target: enzyme I (phosphoenolpyruvate-protein phosphotransferase, EC 2.7.3.9) of the E. coli phosphotransferase system (E. coli) (UniProt P08839)
Assay: M13 phage display panning with enzyme I

binding: binds
Binder: MRLLKTLCFGLCG [peptide 31 …]
